# Experimental data taken from the supplement of paper PMC9015667.
# Where a name gives a salt, the structure may show the parent alone. This is one part of the list. Many values rest on one well or one pass, so single values are uncertain.
# Columns and labels:
# Test in all cases: reduction in cell viability relative to untreated/vehicle; higher = more growth inhibition
# Conditions in all cases: 200 nM; 72 h
# M229P = system: M229P (parental melanoma line)
# M229R = system: M229R (matched melanoma line resistant to BRAF inhibitors)
# M238P = system: M238P (parental melanoma line)
# M238R = system: M238R (matched melanoma line resistant to BRAF inhibitors)
# M249P = system: M249P (parental melanoma line)
# M249R = system: M249R (matched melanoma line resistant to BRAF inhibitors)
# UACC62P = system: UACC62P (parental melanoma line)
# UACC62R = system: UACC62R (matched melanoma line resistant to BRAF inhibitors)
SMILES,reduction in cell viability (M229P) [%],reduction in cell viability (M229R) [%],reduction in cell viability (M238P) [%],reduction in cell viability (M238R) [%],reduction in cell viability (M249P) [%],reduction in cell viability (M249R) [%],reduction in cell viability (UACC62P) [%],reduction in cell viability (UACC62R) [%]
O=C(O)COCCN1CCN(C(c2ccccc2)c2ccc(Cl)cc2)CC1 (configuration not stated) [Cetirizine hydrochloride],< 0,< 0,< 0,< 0,< 0,< 0,< 0,< 0
COc1ccc(CCN2CCN(CCCc3ccccc3)CC2)cc1OC [Cutamesine hydrochloride],3.19,18.3,< 0,< 0,< 0,< 0,2.69,< 0
Cn1c(=O)c(F)c(Nc2ccc(I)cc2F)c2c(=O)n(C[C@@H](O)CO)cnc21,35,11.8,34.3,< 0,79.6,67,62.2,39.9
C[C@H]1COC2(CCN(c3nc(=O)c4cc(C(F)(F)F)cc([N+](=O)[O-])c4s3)CC2)O1,< 0,< 0,< 0,< 0,< 0,< 0,< 0,< 0
Clc1ccc(C(Cn2ccnc2)OCc2ccsc2Cl)c(Cl)c1 (configuration not stated) [Tioconazole],< 0,< 0,< 0,< 0,< 0,< 0,< 0,< 0
CC/C=C\CC1C(=O)CCC1CC(=O)OC (configuration not stated) [methyl jasmonate],< 0,< 0,< 0,< 0,< 0,< 0,< 0,< 0
CC1=CC(=O)c2ccccc2C1=O [Menadione],< 0,< 0,< 0,< 0,6.06,< 0,18.6,< 0
COc1cc2c(N3CCN(C(=O)Nc4ccc(OC(C)C)cc4)CC3)ncnc2cc1OCCCN1CCCCC1 [Tandutinib],< 0,< 0,< 0,< 0,< 0,< 0,< 0,< 0
CCOC(=O)C1=C(N)Oc2ccc(Br)cc2C1C(C#N)C(=O)OCC (configuration not stated),< 0,< 0,< 0,< 0,< 0,< 0,< 0,< 0
N[C@@H](C(=O)N[C@@H]1C(=O)N2C(C(=O)O)=C(Cl)CS[C@H]12)c1ccccc1 [Cefaclor],< 0,< 0,< 0,< 0,< 0,< 0,< 0,< 0
Cc1ccc(-c2cc(C(F)(F)F)nn2-c2ccc(S(N)(=O)=O)cc2)cc1 [Celecoxib],< 0,< 0,< 0,< 0,< 0,< 0,< 0,< 0
CO[C@H]1O[C@@H]2O[C@@]3(C)CC[C@H]4[C@H](C)CC[C@@H]([C@H]1C)[C@@]24OO3 [Artemether],< 0,< 0,< 0,< 0,< 0,< 0,3.08,< 0
C[C@@H](O)[C@H]1C(=O)N2C(C(=O)[O-])=C(SC3Cn4cnc[n+]4C3)[C@H](C)[C@H]12 (some centres not stated) [Biapenem],5.08,< 0,< 0,< 0,< 0,10.3,< 0,< 0
COc1cc(F)c(F)c(Nc2ccc(I)cc2F)c1NS(=O)(=O)C1(C[C@H](O)CO)CC1,< 0,< 0,< 0,< 0,< 0,< 0,7.84,< 0
O=C(/C=C/c1ccc(O)cc1)c1ccc(O)cc1O [Isoliquiritigenin],< 0,< 0,< 0,< 0,< 0,< 0,< 0,< 0
Cc1ccccc1C(=O)Nc1ccc(C(=O)N2CCCC(O)c3cc(Cl)ccc32)c(C)c1 (configuration not stated) [Tolvaptan],< 0,< 0,< 0,< 0,< 0,< 0,5.82,< 0
CCCc1nn(C)c2c(=O)[nH]c(-c3cc(S(=O)(=O)N4CCN(C)CC4)ccc3OCC)nc12 [Sildenafil citrate],5.32,< 0,< 0,< 0,< 0,< 0,< 0,< 0

# Structural class, the compounds so far containing an aryl methoxy group
SMILES,reduction in cell viability (M229P) [%],reduction in cell viability (M229R) [%],reduction in cell viability (M238P) [%],reduction in cell viability (M238R) [%],reduction in cell viability (M249P) [%],reduction in cell viability (M249R) [%],reduction in cell viability (UACC62P) [%],reduction in cell viability (UACC62R) [%]
COc1ccc(CCN2CCN(CCCc3ccccc3)CC2)cc1OC [Cutamesine hydrochloride],3.19,18.3,< 0,< 0,< 0,< 0,2.69,< 0
COc1cc2c(N3CCN(C(=O)Nc4ccc(OC(C)C)cc4)CC3)ncnc2cc1OCCCN1CCCCC1 [Tandutinib],< 0,< 0,< 0,< 0,< 0,< 0,< 0,< 0
COc1cc(F)c(F)c(Nc2ccc(I)cc2F)c1NS(=O)(=O)C1(C[C@H](O)CO)CC1,< 0,< 0,< 0,< 0,< 0,< 0,7.84,< 0

# (list continues)

SMILES,reduction in cell viability (M229P) [%],reduction in cell viability (M229R) [%],reduction in cell viability (M238P) [%],reduction in cell viability (M238R) [%],reduction in cell viability (M249P) [%],reduction in cell viability (M249R) [%],reduction in cell viability (UACC62P) [%],reduction in cell viability (UACC62R) [%]
FC(F)(F)c1ccc(/C=C/c2nc(COc3ccc(CCCCn4ccnn4)cc3)co2)cc1 [Mubritinib],< 0,3.95,< 0,< 0,< 0,< 0,< 0,< 0
COc1cc(C(C)=O)ccc1OCCCN1CCC(c2noc3cc(F)ccc23)CC1 [Iloperidone],< 0,< 0,< 0,< 0,< 0,< 0,< 0,< 0
CC[C@@H]1C(=O)N(C)c2cnc(Nc3ccc(C(=O)N[C@H]4CC[C@H](N5CCN(CC6CC6)CC5)CC4)cc3OC)nc2N1C(C)C [Volasertib (BI 6727)],28.1,57,41.4,< 0,26.6,42.4,31.1,70.5
OCCCNc1cc(-c2ccnc(Nc3cccc(Cl)c3)n2)ccn1,75.3,71.4,97.1,79,94.6,98,85.4,89.3
Cn1c(N2CCCCS2(=O)=O)nc(C(=O)NCc2ccc(F)cc2)c(O)c1=O,< 0,< 0,< 0,< 0,< 0,< 0,< 0,< 0
Cc1ccc2c(=O)c3cccc(CC(=O)O)c3oc2c1C [Vadimezan],< 0,< 0,< 0,< 0,< 0,< 0,< 0,< 0
CCOC(=O)[C@H]1O[C@@H]1C(=O)N[C@@H](CC(C)C)C(=O)NCCC(C)C [Aloxistatin],< 0,< 0,< 0,< 0,< 0,< 0,3.75,< 0
Oc1c2ccccc2c2c3c(cccc13)N=N2,< 0,< 0,< 0,< 0,< 0,< 0,< 0,< 0
Cc1cnc(-c2cnc(NCCNc3ccc(C#N)cn3)nc2-c2ccc(Cl)cc2Cl)[nH]1,< 0,< 0,< 0,< 0,< 0,< 0,< 0,< 0
CC[C@]12C=CCN3CC[C@@]4(c5cc([C@@]6(C(=O)OC)C[C@@H]7C[C@@H](C(C)(F)F)CN(Cc8c6[nH]c6ccccc86)C7)c(OC)cc5N(C)[C@H]4[C@@](O)(C(=O)OC)[C@@H]1OC(C)=O)[C@@H]32 [Vinflunine],26.9,45.7,59.3,70.1,29.7,41.3,44.6,74.5
c1ccc(CNc2nc(N3CCOc4ccccc43)nc3c2CCCC3)cc1,< 0,< 0,< 0,< 0,< 0,< 0,< 0,< 0
COc1cc2c(Oc3ccc(NC(=O)C4(C(=O)Nc5ccc(F)cc5)CC4)cc3F)ccnc2cc1OCCCN1CCOCC1 [Foretinib],< 0,20.8,5.91,23,< 0,3.11,< 0,< 0
CC(=O)N1CCN(c2ccc(OCc3nn(C)c(C)c3-c3cccc4c(CCCOc5cc(C)c(Cl)c(C)c5)c(C(=O)O)n(Cc5cccnc5)c34)cc2)CC1,< 0,< 0,< 0,< 0,< 0,< 0,< 0,< 0
Cn1c(=O)c2c(ncn2CC(O)CO)n(C)c1=O (configuration not stated) [Dyphylline],< 0,< 0,< 0,< 0,< 0,7.45,1.71,< 0
Cc1c(OCC(F)(F)F)ccnc1C[S+]([O-])c1nc2ccccc2[nH]1 (configuration not stated) [Lansoprazole],< 0,< 0,< 0,< 0,< 0,< 0,< 0,< 0
NS(=O)(=O)c1ccc(NC2=CC(=O)c3ccccc3C2=O)cc1,< 0,< 0,53.2,25.6,< 0,6.22,30.3,41
NC1=N[C@@]2(c3cc(NC(=O)c4ccc(F)cn4)ccc3F)COC[C@H]2CS1,< 0,< 0,< 0,< 0,< 0,< 0,6.38,< 0
